Results are given in words; binding and its absence hold for the method and conditions named. For part of these data: Binding seen in cells or lysates may run through a third protein. Some binding calls cover weakened binding; strength is not graded here.
Tests used:
[1] = molecular target: Biotinylated FLCN-8xGlycine-AviTag/FNIP2 (human) (UniProt Q8NFG4); experiment: SPR
FNIP1 = molecular target: T1, FNIP1 (UniProt Q8TF40); experiment: co-IP
T1 sequence: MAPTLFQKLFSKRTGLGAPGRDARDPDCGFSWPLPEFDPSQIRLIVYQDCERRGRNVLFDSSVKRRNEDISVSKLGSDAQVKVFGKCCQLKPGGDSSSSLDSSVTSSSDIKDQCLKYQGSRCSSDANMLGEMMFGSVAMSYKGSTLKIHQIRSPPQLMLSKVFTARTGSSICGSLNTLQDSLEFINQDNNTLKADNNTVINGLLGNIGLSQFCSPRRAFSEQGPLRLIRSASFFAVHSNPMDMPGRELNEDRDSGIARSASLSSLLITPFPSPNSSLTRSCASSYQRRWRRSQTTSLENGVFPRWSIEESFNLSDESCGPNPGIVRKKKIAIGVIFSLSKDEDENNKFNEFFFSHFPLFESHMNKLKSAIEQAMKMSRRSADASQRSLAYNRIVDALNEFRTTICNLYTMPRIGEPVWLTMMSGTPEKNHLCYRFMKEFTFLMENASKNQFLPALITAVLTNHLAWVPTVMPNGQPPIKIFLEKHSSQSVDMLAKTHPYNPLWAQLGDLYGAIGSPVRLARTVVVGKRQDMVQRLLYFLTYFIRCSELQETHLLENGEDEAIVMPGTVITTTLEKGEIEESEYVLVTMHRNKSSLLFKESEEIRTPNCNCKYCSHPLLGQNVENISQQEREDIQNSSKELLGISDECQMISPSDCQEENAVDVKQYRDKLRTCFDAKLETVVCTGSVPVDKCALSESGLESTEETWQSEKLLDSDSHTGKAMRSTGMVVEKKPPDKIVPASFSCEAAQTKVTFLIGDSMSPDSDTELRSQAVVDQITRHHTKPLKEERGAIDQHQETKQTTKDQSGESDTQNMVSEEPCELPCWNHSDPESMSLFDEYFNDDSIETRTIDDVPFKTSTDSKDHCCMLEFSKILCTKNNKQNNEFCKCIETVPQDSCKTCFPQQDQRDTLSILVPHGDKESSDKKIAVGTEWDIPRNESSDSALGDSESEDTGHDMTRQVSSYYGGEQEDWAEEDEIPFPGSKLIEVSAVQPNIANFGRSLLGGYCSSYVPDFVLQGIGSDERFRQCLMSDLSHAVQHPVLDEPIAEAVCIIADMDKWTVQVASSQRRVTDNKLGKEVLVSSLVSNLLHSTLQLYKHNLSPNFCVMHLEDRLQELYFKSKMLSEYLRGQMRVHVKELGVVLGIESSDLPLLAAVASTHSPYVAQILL

By UniProt entry, the sequences of proteins in these tests, tags left out. Where a name states a change or a piece, a line headed by the entry shows the natural chain unless it says otherwise.
UniProt Q8NFG4: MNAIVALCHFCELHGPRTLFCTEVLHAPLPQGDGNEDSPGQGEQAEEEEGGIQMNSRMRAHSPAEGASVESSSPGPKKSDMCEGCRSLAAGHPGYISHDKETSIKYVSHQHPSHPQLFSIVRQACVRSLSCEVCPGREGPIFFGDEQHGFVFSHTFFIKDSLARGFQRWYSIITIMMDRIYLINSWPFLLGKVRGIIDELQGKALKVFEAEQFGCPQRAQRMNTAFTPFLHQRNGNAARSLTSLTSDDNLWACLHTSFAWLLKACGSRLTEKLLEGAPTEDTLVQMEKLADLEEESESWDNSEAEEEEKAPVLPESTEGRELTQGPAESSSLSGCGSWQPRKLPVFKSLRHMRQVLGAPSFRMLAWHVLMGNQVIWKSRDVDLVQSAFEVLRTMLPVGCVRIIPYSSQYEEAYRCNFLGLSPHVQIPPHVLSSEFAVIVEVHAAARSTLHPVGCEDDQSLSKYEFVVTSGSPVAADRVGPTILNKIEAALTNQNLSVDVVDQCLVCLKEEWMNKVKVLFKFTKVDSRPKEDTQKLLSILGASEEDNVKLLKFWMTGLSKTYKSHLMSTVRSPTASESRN
UniProt O95166: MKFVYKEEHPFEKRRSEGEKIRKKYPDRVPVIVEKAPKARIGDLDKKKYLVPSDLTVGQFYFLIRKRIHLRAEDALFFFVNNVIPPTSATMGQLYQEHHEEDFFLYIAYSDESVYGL

[2] = molecular target: FNIP1 LIR mutant Y583A/V586A (UniProt Q8TF40); experiment: co-IP

Row | Substance | binding [1] | binding (FNIP1) | binding [2]
1 | GABARAP (1-117), His8-TEV-GABARAP (from UniProt O95166 1-117) | binds | – | –
2 | GABARAP (from UniProt O95166 1-117) | – | binds | no binding
